Results deposited as PubChem BioAssay AID1259308 (NCATS, 2017)
Shown is a random part of about 59,000 reagents. Over the whole deposit, about 1,510 (2.6%) got an active call. 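Calls use total luciferase alone and ignore viability, so some active siRNAs may act by altering cell number.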 Reagents against one gene are numbered here. Further read-outs or replicates are left out here.

Purpose: 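Knock-downs that increase output of a recombinant reporter protein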 (primary screen)
System: human HEK293 embryonic kidney cells stably expressing firefly luciferase (HEK-CMV-Luc2-Hygro)
Reagent: single siRNA against human genes, 0.8 pmol siRNA per well
Duration: 72 h
Detection: 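Luciferase light (ONE-Glo) measured on one replicate plate set and viability (CellTiter-Glo) on the other, scaled to a negative control siRNA, with robust z-scores and luciferase per cell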
Direction: total luciferase, z-score: higher = more reporter protein produced
Rule for the call: 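An siRNA counts as active if its total luciferase robust z-score exceeds 3; genes with two or more such siRNAs out of three were retested with fresh siRNAs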
Meaning of the calls: active = raised luciferase; inactive = no rise

RHAG #1 gave total luciferase, z-score 0.985; inactive.
For RHAG #2, the entry reads total luciferase, z-score -1.69; inactive.
RHAG #3 scored total luciferase, z-score -0.835; inactive.
YBX3 #1 gave total luciferase, z-score -1.46; inactive.
Knock-down of YBX3 #2 came out at: total luciferase, z-score -0.663; inactive.
Against YBX3 #3 the deposit lists total luciferase, z-score -1.29; inactive.
With knock-down of PVALB #1, the record shows total luciferase, z-score 0.621; inactive.
For PVALB #2, the entry reads total luciferase, z-score 0.152; inactive.
After knock-down of PVALB #3, the screen gave total luciferase, z-score 0.196; inactive.
After knock-down of HDGFL2 #1, the record shows total luciferase, z-score -0.486; inactive.
Depletion of HDGFL2 #2 resulted in: total luciferase, z-score -0.936; inactive.
With knock-down of HDGFL2 #3, the record shows total luciferase, z-score -0.728; inactive.
IGFL1 #1 scored total luciferase, z-score 0.688; inactive.
After knock-down of IGFL1 #2, the record shows total luciferase, z-score -1.16; inactive.
IGFL1 #3 scored total luciferase, z-score -1.25; inactive.
IDH3G #1 showed total luciferase, z-score -0.24; inactive.
After knock-down of IDH3G #2, the record shows total luciferase, z-score -0.124; inactive.
IDH3G #3 gave total luciferase, z-score 0.273; inactive.
For PRSS33 #1 the deposit lists total luciferase, z-score -2.29; inactive.
Silencing of PRSS33 #2 gave: total luciferase, z-score -0.281; inactive.
Depletion of PRSS33 #3 gave: total luciferase, z-score -1.79; inactive.

An excerpt of the results above, as a working copy:
RHAG #3 — total luciferase, z-score = -0.835; outcome = inactive
YBX3 #1 — total luciferase, z-score = -1.46; outcome = inactive
YBX3 #2 — total luciferase, z-score = -0.663; outcome = inactive
